Construct, isoform or probe ends are uncertain for at least one entry. Weaker means in comparison with the reference protein, sequence or condition of that experiment.
Target: NEIL1 P2T (human) (UniProt Q96FI4)
Assay: EMSA
Conditions: EMSA: 25 mM Tris-HCl pH 7.5, 100 mM NaCl, 1 mM DTT, 10 nM DNA, 1-200 nM NEIL1 P2T, on ice 30 min; 6% native PAGE, 0.5x TBE, 4 C; recombinant protein; protein details: C-terminal His6; label: 5'-32P top strand; letters put together from the description

Protein sequences, listed by entry. Tags and fused reporters are not part of them. Lines headed by an entry give the natural chain unless they say otherwise; changes in a name come on top. Chains listed by the source or under a name are the forms on record and can include a tag or linker.
UniProt Q96FI4, other isoform, or with tags, fused parts or gaps: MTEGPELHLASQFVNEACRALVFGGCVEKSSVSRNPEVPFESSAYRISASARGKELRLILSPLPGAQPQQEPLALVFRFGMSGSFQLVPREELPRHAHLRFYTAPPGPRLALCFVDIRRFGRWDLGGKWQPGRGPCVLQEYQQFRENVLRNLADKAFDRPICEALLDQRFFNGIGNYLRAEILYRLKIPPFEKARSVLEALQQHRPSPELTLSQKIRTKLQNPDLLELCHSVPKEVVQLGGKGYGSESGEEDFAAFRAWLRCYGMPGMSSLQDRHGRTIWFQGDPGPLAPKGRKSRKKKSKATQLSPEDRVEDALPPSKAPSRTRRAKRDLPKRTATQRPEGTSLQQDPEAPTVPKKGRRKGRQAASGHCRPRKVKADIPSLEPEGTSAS

“GCTACCTACCTAGCAGGGGCCAGCTGTCCCACTGCTCGGAA (double strand) [41-mer C:G]”: binds more weakly.
